# Out of some 52,000 sequences screened, about 210 (0.4%) were called active.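 The calls were made as follows: active = gene whose silencing raises cell survival under the drug, median off-target-corrected z-score across its silencing RNAs 2 or more; inactive = the rest.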 This is one part of the list.
# Assay: Resistance to Poly (ADP-Ribose) Polymerase inhibitor: Gene Identification via Genome-wide siRNA Screen
# Conditions: mouse BRCA2 R2336H ES cells, olaparib, CellTiter-Glo viability; hits give high values
# How it was run: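 Genome-wide siRNA screen (3 siRNAs/gene, 20 nM) in mouse ES cells carrying hypomorphic BRCA2 R2336H; olaparib 500 nM added 48 h post-transfection, CellTiter-Glo viability 72 h later. Normalized to plate-median negative control; MAD z-scores, gene median, seed-adjusted.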
row,Sequence,z-score
1,GGAGCUGGUGUUGAGUGAGTT against 4933406A14Rik,inactive: -0.0278
2,GGAAACAUCGAAUCUGAUUTT against Slc11a2,inactive: 0.485
3,GGACCUUGGGUCUACAGAATT against Hoxd1,inactive: 0.271
4,CCACAAGUCAUCUUAGUGATT against Zfp236,inactive: -1.36
5,GGCCAGAUGACCUUGUCAUTT against Sult1e1,inactive: -0.228
6,GCUAGAUGCCGAAAAUCAATT against Obscn,inactive: -0.13
7,CGAAACCAUACCAGUUACUTT against Pthr1,inactive: 0.773
8,GGGCAGGACUGAAUCAAGUTT against Dkk2,inactive: 0.806
9,GCAUAAAGUUUACGUCCAATT against Irx4,inactive: 0.875
10,GGACUGGCAAUUUUAUAGATT against Pygb,inactive: 0.577
11,GGAGGUAUUCUAAAAUCACTT against Helb,inactive: 1.41
12,GGAAAUCUGUUCUUGAAGGTT against Pcdhb4,inactive: 1.16
13,CCCAGUUAGAAUUGUUAUCTT against Snx16,inactive: 0.945
14,GGUGCUAGAAACAUCCUACTT against Fbf1,inactive: 2.29
15,GGUAUUGCUUUCACAUUAUTT against C920006C10Rik,inactive: -0.814
16,CCGUCUGGGCAUGAUGAUATT against Dpep3,inactive: -1.58
17,GUGGGAAACAUUUAAUGCCTT against V1rg9,inactive: 0.297
18,GACUUCGGGCAGCAGCAUATT against Atp5e,inactive: -2.48
19,GGCUGAAGCGCAAGAGGAATT against Bing4,inactive: -0.816
20,GGUAGACUUAUGUAGAUUCTT against Mrs2l,inactive: 2.08
21,GGAUGUUUCUAACUCCUUUTT against C330016O10Rik,inactive: -0.515
22,GGAAGAAGAAUACAAAGAUTT against Zfp40,inactive: -0.525

# Some values from above:
# GGAAGAAGAAUACAAAGAUTT against Zfp40 – z-score: inactive: -0.525
# GGAGGUAUUCUAAAAUCACTT against Helb – z-score: inactive: 1.41
# GGUGCUAGAAACAUCCUACTT against Fbf1 – z-score: inactive: 2.29

# (continued)

row,Sequence,z-score
1,GGAAAAGUGGUGAACGACATT against Tm4sf4,inactive: -0.78
2,GGACAUGACAUCCAAAGACTT against Hrmt1l2,inactive: -0.11
3,GCAACUCAUGGUCAAUAUGTT against E130120L08Rik,inactive: 2.15
4,GGAACUGUGUGACUACUUUTT against Efcbp2,inactive: -0.302
5,CGAACGGAAAAAUGGAAGUTT against Gt4-1,inactive: 0.331
6,GCAAAUGAAUCAUGGGUGGTT against Rnf141,inactive: 1.26
7,GGAUCUCUACAACUACAUATT against Rrm1,inactive: -2.59
8,GCCCAAUGACAAGAUGUAUTT against Clcn2,inactive: 1.26
9,GGCAUGAGAAACUCUGACATT against Itlnb,inactive: -0.457
10,GGGACAAGUUCAUCUGAUATT against Rin1,inactive: 0.816
11,CCUCAGGUUUAGAGUUCGCTT against Krtap12-1,inactive: 0.0981
12,GGAUAUACAAAGGAACGCATT against Wdr20,inactive: 2.1
13,CCUAAUCCUUUAGUGUCUATT against Zfp198,inactive: -0.591
14,GGCUGAGGGUAAAAAGCUATT against Acyp1,inactive: -1.45
15,GGACGUGGUUGUUACCUCCTT against LOC268885,inactive: -0.612
16,CCCAGAAACGUGACACUCUTT against Il28ra,inactive: -1.19
17,GGCAUAAAAAAGUAAAUGGTT against A230035L05Rik,inactive: -1.35
18,GGAUGUCUAUUUUUGGUCATT against Esd,inactive: 0.572
19,CCACCAACCGUUAGGUUUUTT against Ube2b,inactive: 0.355
20,GCCAUUUGAAACUCUCCUGTT against BC021614,inactive: -1.31
21,GCAAUGAGGACUUACUUACTT against D4Ertd765e,inactive: 0.627
22,GGAAUUCUCUUAGUCCCUCTT against V1rc15,inactive: -0.0787

row,Sequence,z-score
1,GGCUUGAUCUUCGUAGUGGTT against Arf1,inactive: 1.09
2,GGAUCUCUAUAGCAUCGUGTT against Col18a1,inactive: 1.73
3,GCACGAUGUCUCAGCUCUATT against 9130020G22Rik,inactive: -2.01
4,GCACUACAAACAGUUCCGATT against 6030410K14,inactive: 0.554
5,GCUGCCAAUGAACAAACCATT against 4930432K09Rik,inactive: 0.431
6,GGACAUGAAUGAAACCUUCTT against Cables1,inactive: 0.115
7,CCUUGCUGUCAUUUUGCUUTT against 0610007P22Rik,inactive: 1.16
8,GCAACCAUUCUGGUAUUACTT against Zfp108,inactive: 0.697
9,GGACGGUAACAACUACAAUTT against Polg,inactive: 0.991
10,CCUAAGCUGACUCAUAUUGTT against 1700018F24Rik,inactive: -0.979
11,GGUCAUGCAAUUUAUAAGATT against A530089I17Rik,inactive: -0.269
12,GGUUUCAGAAGACUCAGUATT against Dlx5,inactive: -0.146
13,GGAGUUGAGGUGAUUAUCUTT against Olfr1222,inactive: -0.678
14,CCGAGAUUGCCUGUUUGGUTT against Ibrdc2,inactive: 1.19
15,GGAGAUAUAAAGAAGCAUUTT against BC031353,inactive: -0.815
16,GGAUGAUUGAGAUAGCGAATT against Paf53,inactive: -2.88
17,GGACAUCGCAUGUUUGAAATT against 2700049P18Rik,inactive: 1.73
18,GCAGUGGUAGAACAUCCAATT against Bhmt2,inactive: -1.39
19,GCCCUUAAAACAUAACCACTT against Fgf9,inactive: 0.148
20,GGAUCUUCAAUUCGUUGGUTT against B430218L07Rik,inactive: -0.00993
21,CGUGGAGAGAUCAAUCCCGTT against Tenr,inactive: -1
22,CCAAAGAAGGUGAGAUUUGTT against Clstn1,inactive: -1.19

# Source: PubChem BioAssay AID1347423 (Functional Genomics Laboratory (NCATS/FGL), 2020)
